Earlier results on 2 compounds are cited in patent publication US20170071839A1, “Personal care and medicinal products incorporating organosulfur groups” (priority 2015, published 2017).

For this data set the following is noted: in the presence of cysteine.

Entries after “also recorded” stand apart in the source; their conditions may differ.

As for `C=CCS` [AllylSH, AllylThiol], the “Reaction with Cysteine Product (moles)” value was “SAMC (0.8)”.

Regarding `C=CCSSCC=C` [DADS, Diallyl Disulfide], the “Reaction with Cysteine Product (moles)” value is listed as “AllylSH (1); also recorded: SAMC (1),”.
